PubChem BioAssay AID504784, Drosophila RNAi Screening Center | 2011
Aim: 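Search for regulators of lipid droplet storage in oleate-fed fly cells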 (primary screen). System: Drosophila Kc167 embryonic cells. Reagent: long dsRNA against Drosophila genes, about 250 ng dsRNA per well. Timing: 4 days. Challenge: cells fed 400 µM oleic acid bound to BSA. Detection: 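Cells imaged and segmented; ratio of lipid droplet area to nuclear area, log-transformed, then normalised as a B-score over the screen; higher means more stored lipid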. Scale: droplet/nuclear area B-score: higher = more stored lipid (overstorage).
The screen tested about 17,000 reagents; this is a random part of those with a known target gene and a result. 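Each column is one replicate's B-score; the combined score over replicates was not deposited, so single values may mislead.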 A plus sign joins genes that one reagent is predicted to hit.

target gene | DRSC id | droplet/nuclear area B-score, replicate 1 | droplet/nuclear area B-score, replicate 2 | droplet/nuclear area B-score, replicate 3
Vang | DRSC07570 | -0.167 | 0.12 | –
CG4650 | DRSC02767 | -0.017 | 2.19 | –
CG3071 | DRSC18526 | 0.738 | 2.35 | –
Fum1 | DRSC18344 | 0.191 | 0.648 | 0.0657
Bug22 | DRSC02842 | 0.0603 | 0.889 | –
CG33061 | DRSC09938 | 0.173 | -0.00143 | –
CG33061 | DRSC22897 | -0.0325 | -0.236 | –
hng2 | DRSC16412 | 0.00126 | -0.126 | –
ICA69 | DRSC11621 | -0.29 | 0.968 | -0.173
CR15821 | DRSC08481 | -1.13 | 0.163 | –
Serinc | DRSC11296 | 0.0902 | -1.46 | -0.15
CG11588 | DRSC09145 | 0.129 | -1.2 | –
CG11588 | DRSC09846 | 0.67 | 1.13 | –
CG32473 | DRSC14352 | 0.286 | -1.33 | –
CG32473 | DRSC16446 | 1.53 | -1.8 | –
CG15482 | DRSC02492 | -1.02 | 0.291 | –
CG15545 | DRSC15083 | -1.59 | -2.3 | –
Ntl | DRSC03003 | -0.485 | -0.238 | –
CG13247 | DRSC11695 | -0.89 | -1.55 | –
D | DRSC11132 | 2.35 | 0.302 | –
CG33140 | DRSC06030 | 0.209 | 1.07 | –
daed | DRSC00299 | -2.67 | 0.302 | –
CG31997 | DRSC17105 | 0.0462 | -0.608 | –
spt4 | DRSC07696 | -0.595 | -0.523 | –
CG7800 | DRSC16315 | 0.998 | -0.00634 | –
Arp2 | DRSC19332 | -1.83 | -1.14 | –
Mrm2 | DRSC14310 | 1.54 | -0.26 | –
wor | DRSC03637 | -0.965 | -0.482 | –
Nepl9 | DRSC02255 | 1.58 | -0.382 | –
Cyp12a5 | DRSC16621 | 0.84 | 0.826 | –
Polr2H | DRSC11642 | -0.0121 | 1.32 | -0.454
CG17404 | DRSC15234 | 0.469 | 1.5 | 0.0865
SMC2 | DRSC07544 | -0.24 | -0.826 | –
Akap200 | DRSC01864 | 1.32 | -2.74 | –
Mlh1 | DRSC07473 | -0.157 | -0.285 | –
Cyp6a20 | DRSC07380 | -0.167 | -0.132 | –
ckn | DRSC06149 | 0.298 | 0.214 | –
CG4238 | DRSC00644 | 0.461 | -2.74 | –
CG40053 (retired record) | DRSC20833 | 1.9 | 0.122 | –
Srx | DRSC20005 | -1.17 | -1.7 | –
CG8192 | DRSC07101 | -0.208 | 1.63 | –
CG15820 | DRSC08480 | 0.587 | 0.334 | –
obst-E | DRSC02128 | -0.135 | -0.172 | –
CG8960 | DRSC08612 | 2.8 | 3.02 | –
CG32712 | DRSC17820 | 0.758 | -0.502 | -0.851
CG4744 | DRSC06887 | -1.24 | 0.527 | –
nocte | DRSC18123 | -1.29 | 1.07 | 0.0415
C15 | DRSC13495 | 0.763 | 1.46 | –
C15 | DRSC14169 | 0.875 | -1.51 | –
Nrk | DRSC07480 | -0.497 | -1.75 | –
CG6330 | DRSC16022 | 2.78 | 5.9 | –
CG3191 | DRSC18530 | 0.143 | 0.685 | 0.495
Prp19 | DRSC07434 | 0.279 | 0 | –
Fgop2 | DRSC02016 | 0.0225 | 0.752 | –
CG42324 | DRSC08431 | 0.266 | 0.679 | –
CG42324 | DRSC08432 | 1.07 | 1.16 | –
CG11857 | DRSC14411 | -0.163 | -0.443 | –
Elovl7 | DRSC15452 | 0.375 | 0.714 | –
Elovl7 | DRSC21570 | 0.127 | -0.138 | –
cn | DRSC07594 | 2.59 | 1.26 | –
Ndfip | DRSC11201 | 0.676 | 0.365 | -0.43
CG4829 | DRSC19920 | -0.086 | -0.271 | –
CG12784 | DRSC14539 | 0.0421 | 0.354 | –
CG11379 | DRSC18629 | 2.39 | 0.625 | –
CG16853 | DRSC01877 | -0.038 | 0.0723 | –
CG9691 | DRSC18441 | 0.422 | 0.631 | 0.0242
mat | DRSC08376 | -0.102 | 0.0609 | –
mat | DRSC22841 | -0.266 | 0.457 | –
CG13933 | DRSC08402 | 1.11 | 1.27 | –
Jhbp6 | DRSC11714 | 0.11 | -0.158 | –
CG11362 | DRSC04106 | -1 | -1.81 | –
CG11362 | DRSC22032 | -0.701 | 0.0447 | –
Tcs5 | DRSC09774 | 1.44 | -0.625 | –
pasha | DRSC15295 | 0.405 | -0.681 | –
CG5214 | DRSC15739 | 0.278 | 1.92 | -2.44
CG5214 | DRSC22842 | 1.92 | -0.577 | –
Spase22-23 | DRSC15857 | 0.00463 | 0.0699 | –
Prtl99C | DRSC15049 | -0.0547 | -0.291 | –
eIF2Bgamma | DRSC07100 | 1.37 | -0.956 | –
mRpL4 | DRSC03562 | 0.323 | 1.18 | –
PIG-X | DRSC22721 | -0.534 | 0.0119 | –
Cdc14 | DRSC03013 | -0.00736 | 2.2 | –
red | DRSC14477 | 0.426 | -4.28 | –
red | DRSC23177 | -0.175 | -0.557 | –
Dus1 | DRSC00623 | 1.28 | -4.7 | –
CG18788 | DRSC02697 | 1.9 | 0.554 | –
CG15027 | DRSC19608 | -0.607 | 0.182 | –
CG4646 | DRSC06876 | 0.542 | 1.47 | –
CG12107 | DRSC06102 | 0.303 | -2.29 | –
Vap33 | DRSC18384 | -0.309 | 2.03 | –
CG32318 + Klp61F + Psf1 | DRSC23255 | -0.344 | 0.912 | –
eIF3h | DRSC01995 | 0.879 | -0.515 | –
CG7741 | DRSC07035 | -1.19 | 0.55 | –
CG34221 | DRSC06150 | 0.0394 | 0.884 | –
m-cup | DRSC14430 | -0.673 | -0.058 | –
CG2211 | DRSC08559 | -0.534 | 1.17 | –
CG13255 | DRSC11702 | 0.374 | 0.21 | –
CG10621 | DRSC02078 | -0.674 | -0.822 | –
Prx4 | DRSC08668 | 1.74 | -0.1 | –
CG14439 | DRSC17931 | -0.583 | 0.727 | –
CG10140 | DRSC09704 | -1.53 | -0.683 | –
CG30065 | DRSC05420 | 1.3 | -0.913 | –
gd | DRSC20336 | -3.75 | 0.268 | -0.158
CG31313 | DRSC13044 | -1.84 | -2.16 | –
CG17985 | DRSC06702 | -0.123 | 1.93 | –

Records listed so far whose target name begins with S or s (5):
target gene | DRSC id | droplet/nuclear area B-score, replicate 1 | droplet/nuclear area B-score, replicate 2 | droplet/nuclear area B-score, replicate 3
Serinc | DRSC11296 | 0.0902 | -1.46 | -0.15
spt4 | DRSC07696 | -0.595 | -0.523 | –
SMC2 | DRSC07544 | -0.24 | -0.826 | –
Srx | DRSC20005 | -1.17 | -1.7 | –
Spase22-23 | DRSC15857 | 0.00463 | 0.0699 | –
